{"source": "PubChem BioAssay AID504467", "about": "(National Center for Advancing Translational Sciences (NCATS), 2011)", "note": "About 7,700 (2.3%) of roughly 330,000 compounds were called active. The inconclusive results got no clear call from the source; some entries with a clear call stand among them for comparison. Calls follow the shape of the dose curve; as a rule, active = well fitted inhibition curve with a large enough effect; inconclusive = small, poorly fitted or top-dose-only effect, or effect the other way; inactive = flat fitted curve, though single readings scatter. A potency beside an inconclusive call is a rough fit, not a confirmed value. Non-standard residues stand in square brackets, D forms with d. Residues, ends and D or L forms follow the SMILES beside them. ξ: configuration not given here. *: point of attachment. ξY = NC(Cc1ccc(O)cc1)C(=O)O; Cbz = O=C(OCc1ccccc1)*; OtBu = CC(C)(C)O*; tBu = CC(C)(C)*", "data": [{"assay": "qHTS screen for small molecules that inhibit ELG1-dependent DNA repair in human embryonic kidney (HEK293T) cells expressing luciferase-tagged ELG1; also: nearly all actives have a fitted effect of over 55% in size; also: potency is read from the fitted curve at half-maximal effect", "settings": "HEK293T ELG1-luciferase reporter, luminescence, 16 h, DNA damage induced by 5-fluorouridine; series mostly up to 46.1 µM", "in_short": "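Reporter activity after DNA damage by 5-fluorouridine is monitored. Compound-treated cells incubate 16 hr at 37 °C, then ONE-Glo is added for 30 min before luminescence reading.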", "values": [{"molecule": "N=C1SCC(=O)N1c1ncc(Cc2cccc(Cl)c2)s1", "Potency": "inconclusive: 29.1 µM [activator, partial curve, poor fit]"}, {"molecule": "O=C1c2ccccc2/C(=C\\C#Cc2ccccn2)N1c1ccccc1", "Potency": "inconclusive: 2.91 µM [activator, full curve]"}, {"molecule": "Cc1ccc2nc(-c3ccc(NC(=O)COC(=O)c4ccc(=O)[nH]c4)cc3)sc2c1", "Potency": "inconclusive: 1.03 µM [activator, full curve]"}, {"molecule": "O=S(=O)(Cc1nnnn1-c1ccccc1)c1ccc(Cl)cc1", "Potency": "inactive"}, {"molecule": "CN(C(=O)COc1cc(=O)n(C)c2ccccc12)c1ccc(Cl)cc1", "Potency": "inconclusive: 23.1 µM [activator, partial curve, poor fit]"}, {"molecule": "CC(C)(C)OC(=O)C(Cc1ccc(OC(C)(C)C)cc1)NC(=O)CNC(=O)OCc1ccccc1", "note": "(stereo not drawn) (Cbz-Gly-[ξY](tBu)-OtBu)", "Potency": "active: 8.2 µM"}, {"molecule": "CC1(C)CC[C@]2(CO)CC[C@]3(C)C(=CCC4[C@@]5(C)CC[C@H](O)[C@@](C)(CO)C5CC[C@]43C)[C@@H]2C1", "note": "(some centres undefined)", "Potency": "inactive"}, {"molecule": "CCc1ccc(NC(=O)CN2CCCN(S(=O)(=O)c3ccc(F)cc3)CC2)cc1", "Potency": "inconclusive: 23.1 µM [inhibitor, single point]"}, {"molecule": "CCOC(=O)N1CCC(N(C(=O)Nc2ccc(Cl)c(Cl)c2)C(C)CC)CC1", "note": "(centres undefined)", "Potency": "inconclusive: 29.1 µM [inhibitor, partial curve, poor fit]"}, {"molecule": "CCS(=O)(=O)c1nc(S(=O)(=O)c2ccc(C)cc2)c(NCc2ccccn2)s1", "Potency": "inconclusive: 9.2 µM [activator, partial curve, poor fit]"}, {"molecule": "CN(C)c1ccc(NS(=O)(=O)c2ccc(-c3csnn3)cc2)cc1", "Potency": "inconclusive: 18.3 µM [inhibitor, single point]"}, {"molecule": "COc1ccc([C@H]2CC(=O)C=C(c3ccc(F)cc3OCc3ccccc3)C2)cc1", "Potency": "inconclusive: 25.9 µM [inhibitor, partial curve]"}, {"molecule": "CC(NC(=O)/C(C#N)=C/c1ccc(Cl)c([N+](=O)[O-])c1)c1ccccc1", "note": "(centres undefined)", "Potency": "inconclusive: 29.1 µM [inhibitor, single point]"}, {"molecule": "Cn1cc(C=O)c2cc(F)ccc21", "Potency": "inactive"}, {"molecule": "O=C1c2ccccc2C(=O)N1c1ncccn1", "Potency": "inactive"}, {"molecule": "CCOC(=O)c1c(NC(=O)COc2ccccc2)sc2c1CC(C)(C)NC2(C)C", "Potency": "inactive"}, {"molecule": "CC(C)CCSc1nc(N2CCOCC2)c2c(c1C#N)CC(C)(C)OC2", "Potency": "active: 11.6 µM"}, {"molecule": "CC(=O)N1c2ccc(S(=O)(=O)N3CCCC3C(=O)Nc3ccc(C)cc3)cc2CC1C", "note": "(centres undefined)", "Potency": "inactive"}, {"molecule": "Cc1ccc2nc(N(CCN(C)C)C(=O)c3cc(Cl)sc3Cl)sc2c1", "Potency": "inconclusive: 20.6 µM [activator, single point]"}]}]}
